Experimental data published in patent US7598046B2 (priority 2003, dated 2009).
These are yes or no findings as the source states them, for the method shown. Some entries that bind do so weakly or less than the wild type.

Amino acid sequences for entries named in this document (tags omitted). Residues count along the entry.
UniProt P35951, residues 22-862: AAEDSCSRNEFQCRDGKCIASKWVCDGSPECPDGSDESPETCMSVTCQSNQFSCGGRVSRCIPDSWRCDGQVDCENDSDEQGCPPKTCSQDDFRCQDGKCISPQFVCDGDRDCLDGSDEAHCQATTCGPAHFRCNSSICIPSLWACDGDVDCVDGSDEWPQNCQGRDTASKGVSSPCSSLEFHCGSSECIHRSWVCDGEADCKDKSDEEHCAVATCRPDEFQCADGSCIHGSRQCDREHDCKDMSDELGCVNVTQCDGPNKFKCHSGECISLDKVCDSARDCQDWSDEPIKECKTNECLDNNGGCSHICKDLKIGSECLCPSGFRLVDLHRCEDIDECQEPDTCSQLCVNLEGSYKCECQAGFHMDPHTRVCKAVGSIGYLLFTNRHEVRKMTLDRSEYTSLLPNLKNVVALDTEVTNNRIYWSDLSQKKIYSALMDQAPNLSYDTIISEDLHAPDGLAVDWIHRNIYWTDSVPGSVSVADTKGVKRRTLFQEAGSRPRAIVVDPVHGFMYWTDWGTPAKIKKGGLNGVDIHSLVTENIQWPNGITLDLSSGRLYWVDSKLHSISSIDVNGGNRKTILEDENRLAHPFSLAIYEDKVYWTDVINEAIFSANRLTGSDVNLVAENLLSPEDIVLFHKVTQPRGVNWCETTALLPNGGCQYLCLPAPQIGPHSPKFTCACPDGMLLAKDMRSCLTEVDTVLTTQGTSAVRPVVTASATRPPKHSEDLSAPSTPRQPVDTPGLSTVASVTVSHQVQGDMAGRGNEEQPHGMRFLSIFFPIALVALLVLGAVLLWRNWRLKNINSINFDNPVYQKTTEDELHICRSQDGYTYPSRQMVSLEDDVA
UniProt P04114, residues 28-4563: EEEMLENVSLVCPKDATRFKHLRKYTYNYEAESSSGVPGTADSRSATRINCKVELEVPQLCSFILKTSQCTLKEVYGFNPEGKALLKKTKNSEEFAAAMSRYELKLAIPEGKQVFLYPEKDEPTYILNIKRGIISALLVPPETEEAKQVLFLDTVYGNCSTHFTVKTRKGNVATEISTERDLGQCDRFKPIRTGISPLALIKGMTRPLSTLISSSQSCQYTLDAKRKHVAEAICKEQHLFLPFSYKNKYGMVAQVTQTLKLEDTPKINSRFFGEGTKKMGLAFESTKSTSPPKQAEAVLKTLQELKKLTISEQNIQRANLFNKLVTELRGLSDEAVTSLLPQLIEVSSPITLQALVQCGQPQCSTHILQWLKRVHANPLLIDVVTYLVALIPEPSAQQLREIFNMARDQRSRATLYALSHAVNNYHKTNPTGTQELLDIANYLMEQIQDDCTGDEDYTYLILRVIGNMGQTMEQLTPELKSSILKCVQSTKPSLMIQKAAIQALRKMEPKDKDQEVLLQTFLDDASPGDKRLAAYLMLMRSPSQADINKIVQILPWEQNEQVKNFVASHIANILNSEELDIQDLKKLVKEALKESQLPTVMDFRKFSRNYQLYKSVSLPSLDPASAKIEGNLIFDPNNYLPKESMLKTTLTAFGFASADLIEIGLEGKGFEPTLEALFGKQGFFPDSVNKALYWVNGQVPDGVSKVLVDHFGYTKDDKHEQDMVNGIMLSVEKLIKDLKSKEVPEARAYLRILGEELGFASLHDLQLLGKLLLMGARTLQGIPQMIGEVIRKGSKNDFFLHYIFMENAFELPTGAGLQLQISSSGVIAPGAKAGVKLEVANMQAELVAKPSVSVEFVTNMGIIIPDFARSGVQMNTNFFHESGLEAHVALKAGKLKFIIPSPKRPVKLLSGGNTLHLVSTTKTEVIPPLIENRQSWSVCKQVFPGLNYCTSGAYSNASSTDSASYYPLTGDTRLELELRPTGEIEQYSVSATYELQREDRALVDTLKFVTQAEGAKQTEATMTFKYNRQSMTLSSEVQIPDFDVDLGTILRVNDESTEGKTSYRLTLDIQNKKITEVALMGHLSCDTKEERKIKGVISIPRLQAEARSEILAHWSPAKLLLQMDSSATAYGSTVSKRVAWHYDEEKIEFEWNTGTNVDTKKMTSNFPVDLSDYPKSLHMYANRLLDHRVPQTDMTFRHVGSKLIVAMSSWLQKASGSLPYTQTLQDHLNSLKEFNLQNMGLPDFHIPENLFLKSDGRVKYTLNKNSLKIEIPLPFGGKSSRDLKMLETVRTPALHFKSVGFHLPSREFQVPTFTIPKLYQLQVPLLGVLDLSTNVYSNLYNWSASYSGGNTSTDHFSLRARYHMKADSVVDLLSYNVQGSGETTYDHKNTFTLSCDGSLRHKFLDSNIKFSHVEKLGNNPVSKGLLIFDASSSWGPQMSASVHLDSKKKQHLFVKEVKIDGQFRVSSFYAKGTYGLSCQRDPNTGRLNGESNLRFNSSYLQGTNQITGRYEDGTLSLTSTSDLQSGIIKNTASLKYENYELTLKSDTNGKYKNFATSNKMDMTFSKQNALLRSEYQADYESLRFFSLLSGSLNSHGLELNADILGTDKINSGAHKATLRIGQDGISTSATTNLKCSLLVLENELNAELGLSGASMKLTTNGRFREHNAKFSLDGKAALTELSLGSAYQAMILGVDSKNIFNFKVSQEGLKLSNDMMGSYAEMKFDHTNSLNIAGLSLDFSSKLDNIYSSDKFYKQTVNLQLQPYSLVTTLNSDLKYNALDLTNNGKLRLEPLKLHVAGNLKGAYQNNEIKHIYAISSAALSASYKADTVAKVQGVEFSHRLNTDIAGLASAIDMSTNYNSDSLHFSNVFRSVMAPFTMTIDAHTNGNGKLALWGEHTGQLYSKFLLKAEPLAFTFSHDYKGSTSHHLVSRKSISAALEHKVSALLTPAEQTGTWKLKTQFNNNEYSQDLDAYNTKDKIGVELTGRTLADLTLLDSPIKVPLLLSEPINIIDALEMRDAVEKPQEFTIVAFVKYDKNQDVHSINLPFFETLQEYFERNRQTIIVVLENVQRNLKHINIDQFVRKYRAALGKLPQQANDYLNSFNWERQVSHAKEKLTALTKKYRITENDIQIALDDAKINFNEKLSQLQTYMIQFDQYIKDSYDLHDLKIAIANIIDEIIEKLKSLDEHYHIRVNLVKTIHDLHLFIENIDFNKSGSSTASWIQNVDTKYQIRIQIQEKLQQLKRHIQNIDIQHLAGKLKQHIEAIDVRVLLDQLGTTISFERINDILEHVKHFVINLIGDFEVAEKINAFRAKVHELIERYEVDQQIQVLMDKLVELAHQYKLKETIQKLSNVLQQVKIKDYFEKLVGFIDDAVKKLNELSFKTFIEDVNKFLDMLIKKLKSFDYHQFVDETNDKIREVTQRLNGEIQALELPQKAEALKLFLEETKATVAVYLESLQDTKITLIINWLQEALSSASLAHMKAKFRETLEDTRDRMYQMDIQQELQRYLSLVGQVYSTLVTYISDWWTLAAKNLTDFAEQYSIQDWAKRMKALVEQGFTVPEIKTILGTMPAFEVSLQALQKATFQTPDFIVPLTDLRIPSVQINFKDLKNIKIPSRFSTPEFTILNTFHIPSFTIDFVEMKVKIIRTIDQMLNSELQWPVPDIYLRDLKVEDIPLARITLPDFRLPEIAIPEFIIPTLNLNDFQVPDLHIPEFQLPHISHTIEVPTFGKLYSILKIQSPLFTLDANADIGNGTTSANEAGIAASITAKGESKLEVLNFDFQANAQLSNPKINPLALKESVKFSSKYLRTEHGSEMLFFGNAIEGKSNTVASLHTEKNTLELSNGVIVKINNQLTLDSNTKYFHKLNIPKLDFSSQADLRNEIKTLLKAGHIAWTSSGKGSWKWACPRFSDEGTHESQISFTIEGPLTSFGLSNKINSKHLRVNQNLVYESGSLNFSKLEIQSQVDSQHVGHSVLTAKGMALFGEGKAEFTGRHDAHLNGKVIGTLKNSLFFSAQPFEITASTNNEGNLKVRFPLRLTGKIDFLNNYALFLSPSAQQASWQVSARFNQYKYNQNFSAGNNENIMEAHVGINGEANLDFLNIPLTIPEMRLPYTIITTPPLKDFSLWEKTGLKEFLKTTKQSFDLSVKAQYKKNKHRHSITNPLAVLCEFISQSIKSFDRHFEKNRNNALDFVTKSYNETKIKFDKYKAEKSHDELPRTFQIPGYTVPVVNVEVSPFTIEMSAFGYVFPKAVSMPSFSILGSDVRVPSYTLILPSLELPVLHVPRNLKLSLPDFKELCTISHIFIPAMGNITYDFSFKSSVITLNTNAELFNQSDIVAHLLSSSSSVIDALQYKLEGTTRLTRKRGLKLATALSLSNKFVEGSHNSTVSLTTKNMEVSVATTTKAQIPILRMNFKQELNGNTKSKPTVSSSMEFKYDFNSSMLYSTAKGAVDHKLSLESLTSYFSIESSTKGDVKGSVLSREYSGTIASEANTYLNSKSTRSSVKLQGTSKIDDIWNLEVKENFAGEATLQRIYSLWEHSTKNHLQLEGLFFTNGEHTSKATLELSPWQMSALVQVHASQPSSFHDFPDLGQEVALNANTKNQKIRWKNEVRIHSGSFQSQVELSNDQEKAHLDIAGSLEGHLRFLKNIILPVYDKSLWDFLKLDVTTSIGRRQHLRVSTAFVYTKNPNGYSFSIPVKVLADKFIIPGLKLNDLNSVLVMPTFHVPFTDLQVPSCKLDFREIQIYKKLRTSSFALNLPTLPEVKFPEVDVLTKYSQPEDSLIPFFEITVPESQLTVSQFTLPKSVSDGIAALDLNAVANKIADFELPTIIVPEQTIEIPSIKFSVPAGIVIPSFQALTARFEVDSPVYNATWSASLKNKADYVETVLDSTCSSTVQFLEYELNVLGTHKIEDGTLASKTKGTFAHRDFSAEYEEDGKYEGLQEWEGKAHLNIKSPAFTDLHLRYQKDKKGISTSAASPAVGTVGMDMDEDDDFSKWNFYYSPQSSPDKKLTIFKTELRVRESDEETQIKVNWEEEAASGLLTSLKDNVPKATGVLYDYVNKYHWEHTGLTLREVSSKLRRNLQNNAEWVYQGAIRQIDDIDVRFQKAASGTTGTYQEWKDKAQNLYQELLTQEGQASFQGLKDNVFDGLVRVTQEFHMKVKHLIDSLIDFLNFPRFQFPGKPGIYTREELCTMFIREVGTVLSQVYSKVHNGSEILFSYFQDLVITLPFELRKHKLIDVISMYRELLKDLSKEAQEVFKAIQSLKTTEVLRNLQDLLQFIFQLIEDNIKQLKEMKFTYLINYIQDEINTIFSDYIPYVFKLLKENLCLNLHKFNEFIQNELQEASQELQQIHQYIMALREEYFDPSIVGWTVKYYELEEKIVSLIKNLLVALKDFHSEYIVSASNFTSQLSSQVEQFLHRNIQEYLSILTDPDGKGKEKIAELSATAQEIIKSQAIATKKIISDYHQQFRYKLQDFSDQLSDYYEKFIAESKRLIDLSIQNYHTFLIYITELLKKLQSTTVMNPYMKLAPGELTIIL

Target: LDL receptor on mouse neuroblastoma N2a cells (sub-clones #23 and #60) (mouse) (UniProt P35951)
Experiment: fluorescence microscopy of N2a sub-clones #23 and #60, on ice (surface binding) or 37 C (uptake)

## DiI labeled LDL (Molecular Probes L-3482) (from UniProt P04114 28-4563)
  binding: binds
